Test results taken from publication doi:10.64898/2025.12.29.696918.
Results are given in words; binding and its absence hold for the method and conditions named. Binding seen in cells or lysates may run through a third protein. A yes stands for co-enrichment or nearness to the bait. Other partners may have been found. For some assays here: No binding means not detected with the bait.

Assays:
[1] = target: T1, biotinylated P7-Pen (SLAMF1-derived peptide P7 joined to penetratin); test: affinity purification with mass spectrometry
T1 sequence (peptide, biotin covalently linked to the C-terminal lysine): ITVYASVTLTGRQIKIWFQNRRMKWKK

[2] = target: T2, biotinylated Penetratin (control peptide); test: affinity purification with mass spectrometry
T2 sequence (peptide, biotin covalently linked to the C-terminal lysine): RQIKIWFQNRRMKWKK

B1: lysine deacetylase ABHD14B (enzyme, UniProt Q96IU4 1-210)
chain: MAASVEQREGTIQVQGQALFFREALPGSGQARFSVLLLHGIRFSSETWQNLGTLHRLAQAGYRAVAIDLPGLGHSKEAAAPAPIGELAPGSFLAAVVDALELGPPVVISPSLSGMYSLPFLTAPGSQLPGFVPVAPICTDKINAANYASVKTPALIVYGDQDPMGQTSFEHLKQLPNHRVLIMKGAGHPCYLDKPEEWHTGLLDFLQGLQ
B1 was tested, and the binding [1] was “binds” and the binding [2] was “no binding”.
